In PMC7736804:
No constants are given. Whether binding was seen depends on the method and setting. Binding seen in cells or lysates may run through a third protein.

Sequences of proteins named here, by UniProt entry; tags and fusion partners are left off.
UniProt P06748: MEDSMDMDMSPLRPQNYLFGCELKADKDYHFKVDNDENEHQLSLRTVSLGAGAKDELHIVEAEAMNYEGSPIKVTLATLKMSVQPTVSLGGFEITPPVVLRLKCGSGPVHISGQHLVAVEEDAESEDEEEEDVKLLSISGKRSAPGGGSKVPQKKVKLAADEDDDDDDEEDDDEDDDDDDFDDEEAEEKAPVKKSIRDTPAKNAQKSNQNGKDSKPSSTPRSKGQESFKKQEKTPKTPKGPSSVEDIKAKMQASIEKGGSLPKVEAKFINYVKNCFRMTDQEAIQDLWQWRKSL

Assays:
Test in all cases: co-IP; Flag-tagged BCCIP proteins, truncations or AD mutants transiently expressed in HEK293 cells; lysates precipitated with M2 anti-Flag beads; co-precipitated endogenous proteins detected by western blots
[1] = target: Flag-tagged human BCCIPα (human) (UniProt Q9P287)
[2] = target: Flag-tagged mouse BCCIP (mouse) (UniProt Q9CWI3)
[3] = target: Flag-tagged human BCCIPβ (human) (UniProt Q9P287)

Measured: binding

B23 (endogenous, HEK293) (from UniProt P06748 1-294)
no binding: all assays above
